In patent US10544186B2, “Process for the synthesis of amide bonds with the aid of novel catalysts” (Merck Patent GmbH, priority 2016, dated 2020):

What was measured:
[1] = Synthesis of Ac-Phe-Ala-OMe: conversion and degree of epimerisation by 1H NMR; settings: THF, TMP
[2] = Activation of Z-Aib-OH by the amide linking reagents (NMR conversion to active ester); settings: THF, TMP

**Q.** With CN(C)[P+](On1nnc2ccccc21)(N(C)C)N(C)C [drawing 26] as the compound, how does the “Conversion, % for X- = PF6-” value ([1]; 5 minutes) read?
**A.** 44%

**Q.** What about the “Conversion, % for X- = PF6-” value ([1]; 10 minutes) of the same compound?
**A.** 59%

**Q.** What about the “Conversion, % for X- = PF6-” value ([1]; 15 minutes) of the same compound?
**A.** 68%

**Q.** What about the “Conversion, % for X- = [(C2F5)3PF3]-” value ([1]; 5 minutes) of the same compound?
**A.** 67%

**Q.** What about the “Conversion, % for X- = [(C2F5)3PF3]-” value ([1]; 10 minutes) of the same compound?
**A.** 77%

**Q.** What about the “Conversion, % for X- = [(C2F5)3PF3]-” value ([1]; 15 minutes) of the same compound?
**A.** 80%

**Q.** Which “Conversion, % for X- = PF6-” value ([1]; 5 minutes) does the source give for CN(C)C(n1n[n+]([O-])c2ncccc21)=[N+](C)C [drawing 25] here?
**A.** 58%

**Q.** And the “Conversion, % for X- = PF6-” value ([1]; 10 minutes)?
**A.** 69%

**Q.** And the “Conversion, % for X- = PF6-” value ([1]; 15 minutes)?
**A.** 76%

**Q.** What about the “Conversion, % for X- = [(C2F5)3PF3]-” value ([1]; 5 minutes) of the same compound?
**A.** 100 100 100%

**Q.** And the “Conversion, % for X- = [(C2F5)3PF3]-” value ([1]; 10 minutes)?
**A.** 100 100 100%

**Q.** What about the “Conversion, % for X- = [(C2F5)3PF3]-” value ([1]; 15 minutes) of the same compound?
**A.** 100 100 100%

**Q.** With CN(C)C(Sc1cccc[n+]1[O-])=[N+](C)C [drawing 32] as the compound, how does the “Epimerisation, % for X- = [(C2F5)3PF3]-” value ([1]; 10 minutes) read?
**A.** b 9.1 9.1%

**Q.** And the “Epimerisation, % for X- = [(C2F5)3PF3]-” value ([1]; 15 minutes)?
**A.** b 9.1 9.1%

**Q.** For CN(C)C(On1nnc2ccccc2c1=O)=[N+](C)C [drawing 8], which “Conversion, % for X- = BF4-” value ([2]; 4 minutes) is on record?
**A.** 6%

**Q.** And the “Conversion, % for X- = BF4-” value ([2]; 20 minutes)?
**A.** 36%

**Q.** What about the “Conversion, % for X- = BF4-” value ([2]; 40 minutes) of the same compound?
**A.** 62%

**Q.** And the “Conversion, % for X- = [(C2F5)3PF3]-” value ([2]; 4 minutes)?
**A.** 90%

**Q.** And the “Conversion, % for X- = [(C2F5)3PF3]-” value ([2]; 20 minutes)?
**A.** 95%

**Q.** And the “Conversion, % for X- = [(C2F5)3PF3]-” value ([2]; 40 minutes)?
**A.** 99%

**Q.** With CN(C)[P+](On1nnc2ccccc21)(N(C)C)N(C)C [drawing 15] as the compound, how does the “Conversion, % for X- = PF6-” value ([2]; 4 minutes) read?
**A.** 7%

**Q.** What about the “Conversion, % for X- = PF6-” value ([2]; 20 minutes) of the same compound?
**A.** 22%

**Q.** And the “Conversion, % for X- = PF6-” value ([2]; 40 minutes)?
**A.** 43%

**Q.** And the “Conversion, % for X- = [(C2F5)3PF3]-” value ([2]; 4 minutes)?
**A.** 28%

**Q.** What about the “Conversion, % for X- = [(C2F5)3PF3]-” value ([2]; 20 minutes) of the same compound?
**A.** 64%

**Q.** And the “Conversion, % for X- = [(C2F5)3PF3]-” value ([2]; 40 minutes)?
**A.** 76%

**Q.** For CN(C)C(On1nnc2ccccc2c1=O)=[N+](C)C [drawing 19], which “Conversion, % for X- = BF4-” value ([1]; 5 minutes) is on record?
**A.** 74%

**Q.** And the “Conversion, % for X- = BF4-” value ([1]; 10 minutes)?
**A.** 89%

**Q.** What about the “Conversion, % for X- = BF4-” value ([1]; 15 minutes) of the same compound?
**A.** 94%

**Q.** What about the “Conversion, % for X- = [(C2F5)3PF3]-” value ([1]; 5 minutes) of the same compound?
**A.** 100 100 100%

**Q.** And the “Conversion, % for X- = [(C2F5)3PF3]-” value ([1]; 10 minutes)?
**A.** 100 100 100%

**Q.** And the “Conversion, % for X- = [(C2F5)3PF3]-” value ([1]; 15 minutes)?
**A.** 100 100 100%

**Q.** For CN(C)C(Oc1c(F)c(F)c(F)c(F)c1F)=[N+](C)C [drawing 31], which “Epimerisation, % for X- = PF6-” value ([1]; 5 minutes) is on record?
**A.** 3.9%

**Q.** What about the “Epimerisation, % for X- = PF6-” value ([1]; 10 minutes) of the same compound?
**A.** 6.0%

**Q.** And the “Epimerisation, % for X- = PF6-” value ([1]; 15 minutes)?
**A.** 8.1%

**Q.** And the “Epimerisation, % for X- = [(C2F5)3PF3]-” value ([1]; 5 minutes)?
**A.** 6.2%

**Q.** And the “Epimerisation, % for X- = [(C2F5)3PF3]-” value ([1]; 10 minutes)?
**A.** 9.0%

**Q.** And the “Epimerisation, % for X- = [(C2F5)3PF3]-” value ([1]; 15 minutes)?
**A.** 9.9%

**Q.** For CN(C)C(Sc1cccc[n+]1[O-])=[N+](C)C [drawing 22], which “Conversion, % for X- = PF6-” value ([1]; 5 minutes) is on record?
**A.** 0%

**Q.** And the “Conversion, % for X- = PF6-” value ([1]; 10 minutes)?
**A.** 1.7%

**Q.** What about the “Conversion, % for X- = PF6-” value ([1]; 15 minutes) of the same compound?
**A.** 2%

**Q.** What about the “Conversion, % for X- = [(C2F5)3PF3]-” value ([1]; 5 minutes) of the same compound?
**A.** 5%

**Q.** What about the “Conversion, % for X- = [(C2F5)3PF3]-” value ([1]; 10 minutes) of the same compound?
**A.** 13%

**Q.** What about the “Conversion, % for X- = [(C2F5)3PF3]-” value ([1]; 15 minutes) of the same compound?
**A.** 19%

**Q.** Which results are given for CN(C)C(n1n[n+]([O-])c2ccccc21)=[N+](C)C [drawing 23]?
**A.** Conversion, % for X- = PF6- ([1]; 5 minutes): 5.3%; Conversion, % for X- = PF6- ([1]; 10 minutes): 6%; Conversion, % for X- = PF6- ([1]; 15 minutes): 6.3%; Conversion, % for X- = [(C2F5)3PF3]- ([1]; 5 minutes): 93%; Conversion, % for X- = [(C2F5)3PF3]- ([1]; 10 minutes): 100%; Conversion, % for X- = [(C2F5)3PF3]- ([1]; 15 minutes): 100%

**Q.** For CN(C)[P+](On1nnc2ccccc21)(N(C)C)N(C)C [drawing 36], which “Epimerisation, % for X- = PF6-” value ([1]; 5 minutes) is on record?
**A.** 3.5%

**Q.** And the “Epimerisation, % for X- = PF6-” value ([1]; 10 minutes)?
**A.** 3.9%

**Q.** What about the “Epimerisation, % for X- = PF6-” value ([1]; 15 minutes) of the same compound?
**A.** 4.2%

**Q.** What about the “Epimerisation, % for X- = [(C2F5)3PF3]-” value ([1]; 5 minutes) of the same compound?
**A.** 1.9%

**Q.** What about the “Epimerisation, % for X- = [(C2F5)3PF3]-” value ([1]; 10 minutes) of the same compound?
**A.** 3.0%

**Q.** What about the “Epimerisation, % for X- = [(C2F5)3PF3]-” value ([1]; 15 minutes) of the same compound?
**A.** 3.4%

**Q.** Which results are given for CN(C)C(n1n[n+]([O-])c2ccccc21)=[N+](C)C [drawing 12]?
**A.** Conversion, % for X- = PF6- ([2]; 4 minutes): 3%; Conversion, % for X- = PF6- ([2]; 20 minutes): 2%; Conversion, % for X- = PF6- ([2]; 40 minutes): 4%; Conversion, % for X- = [(C2F5)3PF3]- ([2]; 4 minutes): 79%; Conversion, % for X- = [(C2F5)3PF3]- ([2]; 20 minutes): 89%; Conversion, % for X- = [(C2F5)3PF3]- ([2]; 40 minutes): 95%

**Q.** Which “Conversion, % for X- = PF6-” value ([1]; 5 minutes) does the source give for CN(C)C(Oc1c(F)c(F)c(F)c(F)c1F)=[N+](C)C [drawing 21] here?
**A.** 32%

**Q.** And the “Conversion, % for X- = PF6-” value ([1]; 10 minutes)?
**A.** 55%

**Q.** And the “Conversion, % for X- = PF6-” value ([1]; 15 minutes)?
**A.** 68%

**Q.** What about the “Conversion, % for X- = [(C2F5)3PF3]-” value ([1]; 5 minutes) of the same compound?
**A.** 44%

**Q.** And the “Conversion, % for X- = [(C2F5)3PF3]-” value ([1]; 10 minutes)?
**A.** 63%

**Q.** And the “Conversion, % for X- = [(C2F5)3PF3]-” value ([1]; 15 minutes)?
**A.** 73%

**Q.** Which results are given for c1cnc2c(c1)nnn2O[P+](N1CCCC1)(N1CCCC1)N1CCCC1 [drawing 28]?
**A.** Conversion, % for X- = PF6- ([1]; 5 minutes): 90%; Conversion, % for X- = PF6- ([1]; 10 minutes): 97%; Conversion, % for X- = PF6- ([1]; 15 minutes): 100%; Conversion, % for X- = [(C2F5)3PF3]- ([1]; 5 minutes): 92%; Conversion, % for X- = [(C2F5)3PF3]- ([1]; 10 minutes): 100%; Conversion, % for X- = [(C2F5)3PF3]- ([1]; 15 minutes): 100%
